According to ChEMBL document CHEMBL4651402, “Screening of ~5500 FDA-approved drugs and clinical candidates for anti-SARS-CoV-2 activity” (2021):

System: SARS-CoV-2
Assay: microbe, parasite or virus in culture
Details: Severe acute respiratory syndrome coronavirus 2, Vero C1008, 48 h

| SMILES | IC50 | IC50 (read-out: pIC50 (converted)) |
| --- | --- | --- |
| Cc1ccc(C(=O)NCCCCCC(=O)Nc2ccccc2N)cc1 | > 20 µM | > 20 µM |
| CC(C)NC[C@@H](O)COc1cccc2ccccc12 [DEXPROPRANOLOL] | > 20 µM | > 20 µM |
| CN(C)CCOC(c1ccccc1)c1ccccc1 [DIPHENHYDRAMINE] | > 20 µM | > 20 µM |
| N#Cc1ccc(C2CCCc3cncn32)cc1 (configuration not stated) [FADROZOLE] | > 20 µM | > 20 µM |
| CN1[C@@H]2CC[C@H]1C[C@@H](OC(=O)C(O)c1ccccc1)C2 (some centres not stated) [HOMATROPINE] | > 20 µM | > 20 µM |
| CC(C)NC[C@H](O)COc1cccc2ccccc12 [LEVOPROPRANOLOL] | > 20 µM | > 20 µM |
| CNCCCC12CCC(c3ccccc31)c1ccccc12 [MAPROTILINE] | > 20 µM | > 20 µM |
| CN1CC[C@]23c4c5ccc(O)c4O[C@H]2[C@@H](O)C=C[C@H]3[C@H]1C5 [MORPHINE] | > 20 µM | > 20 µM |
| CC(C)NCC(O)COc1cccc2ccccc12 (configuration not stated) [PROPRANOLOL] | > 20 µM | > 20 µM |
| OCCOCCN1CCN(C2=Nc3ccccc3Sc3ccccc32)CC1 [QUETIAPINE] | > 20 µM | > 20 µM |
| CCC(C)C(C(=O)OCC[N+](C)(CC)CC)c1ccccc1 (configuration not stated) [VALETHAMATE] | > 20 µM | > 20 µM |
